The source of these data is publication PMC9224678.

No constants are given. Whether binding was seen depends on the method and setting. A result given as binding can be weak or reduced; the word gives no strength.

The target in assay [1] is BbPex26 (Beauveria bassiana) (UniProt J4KR20). The experiment in a line: two-hybrid; Matchmaker GAL4 Two-Hybrid System 3; baits BbPex6 and BbPex26 in pGBKT7, preys BbPex1 and BbPex6 in pGADT7; yeast strain YH109; positive when transformants grew on SD/Trp-Leu-His-Ade plates.
The target in assay [2] is BbPex6 (Beauveria bassiana) (UniProt J5JLL8). Described as above.

For BbPex1 (from UniProt J4KR43), the binding result in assay [1] and in assay [2] was “binds” throughout.

With BbPex6 (from UniProt J5JLL8), in assay [1], the binding entry was “binds”.
